Laboratory results: PubChem BioAssay AID1159584 (Peter MacCallum Cancer Centre, 2016)
Shown is a random part of about 18,000 deposited reagents. Not all columns of the deposit are shown. Not given: the amount of reagent, the time to read-out.

- Purpose: 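Knock-downs that harm CDH1-null cells more than parental MCF10A cells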 (primary screen)
- System: human MCF10A breast epithelial cells, parental and CDH1-null
- Reagent: siRNA against human genes
- Measured: 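Cell viability by CellTiter-Glo ATP luminescence, each line scaled to the mean of mock wells across plates, then CDH1-null over parental ratio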
- Scale: CDH1-null / parental viability ratio: higher = CDH1-null cells survive relatively better than parental; CDH1-null viability vs mock: higher = more viable CDH1-null cells

| gene | CDH1-null / parental viability ratio | CDH1-null viability vs mock (fraction of mock) |
| --- | --- | --- |
| HSPH1 (GeneID 10808) | 0.75 | 0.76 |
| ARF4 (GeneID 378) | 0.94 | 1.03 |
| TDRD12 (GeneID 91646) | 0.86 | 0.31 |
| FAM135A (GeneID 57579) | 0.95 | 0.96 |
| AKAP19 (GeneID 84281) | 0.79 | 0.41 |
| ZNF813 (GeneID 126017) | 0.8 | 0.8 |
| STARD5 (GeneID 80765) | 1.25 | 0.6 |
| FAM131B (GeneID 9715) | 0.83 | 0.7 |
| TAMM41 (GeneID 132001) | 1.13 | 1.02 |
| CHGA (GeneID 1113) | 0.76 | 0.65 |
| C2CD2L (GeneID 9854) | 1.12 | 0.96 |
| TXNDC16 (GeneID 57544) | 1 | 0.74 |
| RIMBP2 (GeneID 23504) | 0.91 | 0.85 |
| C1orf53 (GeneID 388722) | 1.12 | 0.74 |
| DTNA (GeneID 1837) | 1.59 | 0.7 |
| ARHGAP17 (GeneID 55114) | 0.92 | 0.79 |
| CRH (GeneID 1392) | 0.88 | 0.86 |
| DIPK2B (GeneID 79742) | 0.82 | 0.74 |
| ST14 (GeneID 6768) | 1.09 | 0.62 |
| SLC1A3 (GeneID 6507) | 0.66 | 0.37 |
| TLR2 (GeneID 7097) | 1.21 | 1.22 |
| LMF2 (GeneID 91289) | 0.98 | 0.94 |
| SMIM43 (GeneID 132332) | 0.92 | 0.81 |
| MYH7 (GeneID 4625) | 1.09 | 0.99 |
| BRF1 (GeneID 2972) | 1.03 | 0.7 |
| C6orf58 (GeneID 352999) | 0.92 | 0.79 |
| TMEM127 (GeneID 55654) | 0.84 | 0.42 |
| DNAAF8 (GeneID 146562) | 0.85 | 0.6 |
| SLC25A37 (GeneID 51312) | 0.89 | 0.84 |
| PDCD4 (GeneID 27250) | 1.15 | 0.78 |
| DCX (GeneID 1641) | 1.03 | 0.93 |
| MTFR1 (GeneID 9650) | 0.99 | 0.78 |
| PLA2G4C (GeneID 8605) | 1.09 | 0.99 |
| CYP26C1 (GeneID 340665) | 0.89 | 0.39 |
| ANKRD13C (GeneID 81573) | 1.09 | 0.74 |
| DCAF4 (GeneID 26094) | 1.17 | 0.34 |
| DOK2 (GeneID 9046) | 0.95 | 0.53 |
| SLC2A1 (GeneID 6513) | 0.97 | 0.91 |
| CYP4Z1 (GeneID 199974) | 0.97 | 0.86 |
| ADGRA1 (GeneID 84435) | 1.3 | 0.92 |
| PRPF8 (GeneID 10594) | 1.56 | 0.28 |
| PLIN4 (GeneID 729359) | 0.98 | 0.88 |
| GPX4 (GeneID 2879) | 0.62 | 0.58 |
| MAP4K4 (GeneID 9448) | 1.14 | 1.06 |
| GLT6D1 (GeneID 360203) | 1.07 | 0.94 |
| GNPNAT1 (GeneID 64841) | 0.74 | 0.53 |
| YARS1 (GeneID 8565) | 1.05 | 0.88 |
| POLM (GeneID 27434) | 1.09 | 0.82 |
| RHOXF2 (GeneID 84528) | 1.26 | 0.63 |
| OSBPL7 (GeneID 114881) | 1.16 | 1 |
| FBH1 (GeneID 84893) | 1.16 | 1.1 |
| H2BC5 (GeneID 3017) | 1.24 | 0.82 |
| GPD1 (GeneID 2819) | 1.03 | 0.76 |
| MOGAT3 (GeneID 346606) | 1.02 | 0.84 |
| TUBA1B (GeneID 10376) | 1.02 | 0.43 |
| LIM2 (GeneID 3982) | 1.21 | 0.86 |
| PNPT1 (GeneID 87178) | 0.84 | 0.68 |
| TBC1D2 (GeneID 55357) | 0.88 | 0.38 |
| PRODH (GeneID 5625) | 1.06 | 0.86 |
| CNOT6L (GeneID 246175) | 0.91 | 0.73 |
| NTAQ1 (GeneID 55093) | 0.91 | 0.72 |
| ARAP3 (GeneID 64411) | 1.35 | 0.7 |
| NOP56 (GeneID 10528) | 1.27 | 0.84 |
| STRIP1 (GeneID 85369) | 1.04 | 0.81 |
| OR2S2 (GeneID 56656) | 1.16 | 0.66 |
| BROX (GeneID 148362) | 0.98 | 0.88 |
| SCGB3A2 (GeneID 117156) | 0.85 | 0.72 |
| TMEM208 (GeneID 29100) | 1.15 | 1.02 |
